Here are results for 42 sequences from article PMC7819943, “Rice protein-binding microarrays: a tool to detect cis-acting elements near promoter regions in rice”.

Amino acid sequences for entries named in this document (tags omitted).
UniProt Q0JBA9, entry or part of it: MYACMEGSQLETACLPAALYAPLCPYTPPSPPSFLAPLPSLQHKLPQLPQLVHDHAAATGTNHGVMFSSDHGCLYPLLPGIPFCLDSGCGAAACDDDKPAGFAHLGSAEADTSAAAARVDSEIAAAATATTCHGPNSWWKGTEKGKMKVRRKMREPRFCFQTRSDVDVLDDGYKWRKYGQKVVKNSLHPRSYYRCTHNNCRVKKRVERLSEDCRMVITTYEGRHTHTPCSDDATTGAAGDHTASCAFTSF

Some of the results follow.

The target of this assay is OsWRKY34 (Oryza sativa, UniProt Q0JBA9 1-250). Nature of the assay: protein-binding microarray (RPBM); PBS, 2% BSA, 51.3 ng/ul salmon testes DNA, 50 uM zinc acetate, 200 nM TF, 25 C, 1 h; high values mean tight binding. The note with it: protein: recombinant; tags: N-terminal polyhistidine and DsRed monomer fusion (pET32a); label: CyDye5-dUTP incorporated in the synthesized complementary strand; 3' TTTTT single-stranded linker to array surface; dsDNA, one strand shown. In a few lines:
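Polyhistidine-tagged DsRed fusions of transcription factors, joined at the N-terminus, were expressed in E. coli BL21-CodonPlus and isolated on Ni–NTA. They were incubated at 200 nM for 1 h at 25 °C on a custom Agilent array, double-stranded and BSA-blocked, in PBS with 2% BSA, salmon testes DNA and 50 µM zinc acetate. The binding signal is per-feature fluorescence intensity (arbitrary units) read on an Axon 4000B scanner after washing.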
As to “AGTATGTTTTATGTTCTTATGGTGTCTAGAAAATGAGTTACGGAGTCACCTAGTGCAG”, the binding signal was 10200 fluorescence intensity (a.u.).
Regarding “ACCGGGCTCTCTGATAACTTCGATGCCACTGCTTTTGCTCCGGAGTCACCTAGTGCAG”, the binding signal is 8460 fluorescence intensity (a.u.).
To “CTCTGGGGTTGGTGGTAGCTTGCTGTCTGCTCTGTTTATGCGGAGTCACCTAGTGCAG” belongs 11300 fluorescence intensity (a.u.); to “AAGATCTCCCAGGCCTCGTGTTTTACGTCAACTGGTTGTACGGAGTCACCTAGTGCAG”, 8270 fluorescence intensity (a.u.).
To “GAAAGCATCCCCAGCCGTTCATCGCCCATCCGAGGTAGAACGGAGTCACCTAGTGCAG” belongs 9070 fluorescence intensity (a.u.); to “TTCCAAAGCATGCACTTTTCATCATTATCCCATCTCATAACGGAGTCACCTAGTGCAG”, 9480 fluorescence intensity (a.u.); to “CAATTTGGAGCCCTTTTTTTATTGCATGCAACTCTGCAGTCGGAGTCACCTAGTGCAG”, 8360 fluorescence intensity (a.u.).
Consider “TACCTCCGCGCGCGCCTTGTGTTCGACCCACGTCAACCCACGGAGTCACCTAGTGCAG”, for which the binding signal is 10300 fluorescence intensity (a.u.).
To “GTCCAAAGTGCGAATCGCTCTTTATTTTTCTACCGTCACCCGGAGTCACCTAGTGCAG” belongs 8430 fluorescence intensity (a.u.); to “TCAGTTCTGTTGGTCTTCTTTTTCTCTCCGGTGGGGATAGCGGAGTCACCTAGTGCAG”, 8280 fluorescence intensity (a.u.); to “ATCCTCTCCCGCACCAGCTATAAACCGCCACACGCCCTCGCGGAGTCACCTAGTGCAG”, 8650 fluorescence intensity (a.u.).
To “CACGTTGTGAGCGCCTGTGTTTGTACTATATTTCTCAAAACGGAGTCACCTAGTGCAG” belongs 8260 fluorescence intensity (a.u.); to “AGAATTACACGGTACAACACAGACACTCACAACGCATGCACGGAGTCACCTAGTGCAG”, 8510 fluorescence intensity (a.u.); to “TATATATATATATATATATATATATCGAAGCAAATTCCCACGGAGTCACCTAGTGCAG”, 9930 fluorescence intensity (a.u.).
To “TTTCCGTTAGTTTTTATTAGCACGTTTTTCAAACTACAAACGGAGTCACCTAGTGCAG” belongs 8840 fluorescence intensity (a.u.); to “TTGCTGAATCCAACATCGACCTCGCGTTTCTGTCTTTTTCCGGAGTCACCTAGTGCAG”, 9960 fluorescence intensity (a.u.); to “TGTTATGTGATCATGGTTTTATTGAGTGAATTTCACTTTACGGAGTCACCTAGTGCAG”, 8250 fluorescence intensity (a.u.).
As to “CCGATTTCACCTGGTTGCTTGCTTCTGCTGCCATGCCATCCGGAGTCACCTAGTGCAG”, the binding signal is 10100 fluorescence intensity (a.u.).
To “GTGGAAGCACCAAAACTTATTTTTCTTCAAACGGTACATACGGAGTCACCTAGTGCAG” belongs 8090 fluorescence intensity (a.u.); to “AATGTCTTACCTCTTCTCTCTTTCGATGCCAAGAATGCAGCGGAGTCACCTAGTGCAG”, 9830 fluorescence intensity (a.u.).
To “TTCAACTCTGGTCTGCAGTATCATCACTGTTAATTCCTTCCGGAGTCACCTAGTGCAG” belongs 10200 fluorescence intensity (a.u.).
Take “TCTTTAAAACCCATCACCATGTCCTAATAACACTTCCATGCGGAGTCACCTAGTGCAG”: the binding signal is 8120 fluorescence intensity (a.u.).
For “TAGAGGGAGGGGACTGAGCAGGTGGTCGAATCAGGGGAGCCGGAGTCACCTAGTGCAG”, the binding signal is 8180 fluorescence intensity (a.u.).
To “CTCTCTTTCATCCAATTCCTGTGTTTTCCCCGCGGTTTAACGGAGTCACCTAGTGCAG” belongs 11200 fluorescence intensity (a.u.); to “GCTATCTCTGTAGACTGTAGTTATTCCCATTCACATTTTCCGGAGTCACCTAGTGCAG”, 8140 fluorescence intensity (a.u.); to “TATTACGACACTTTCAGTCAGTTGTCTGAATTTTTGTTCCCGGAGTCACCTAGTGCAG”, 9500 fluorescence intensity (a.u.).
As to “TCCCAGCCACACACACGCGCACCCACACACGCATTCACATCGGAGTCACCTAGTGCAG”, the binding signal is 9920 fluorescence intensity (a.u.).
To “ACACTGCCTAACTGTTCACCTAACTGGGTTCAACTGTACTCGGAGTCACCTAGTGCAG” belongs 10000 fluorescence intensity (a.u.); to “ATTGAGATAGAGGGAGTGGTTGGGATGGTGAAGTTGCTATCGGAGTCACCTAGTGCAG”, 9450 fluorescence intensity (a.u.); to “CAGTTTCATCTTGCTTCGGAGCTGCACGCATCAGCCATCCCGGAGTCACCTAGTGCAG”, 8390 fluorescence intensity (a.u.).
On to “CCAGTAGTGATCAACATGTACACCTCATACCATGTCCTTTCGGAGTCACCTAGTGCAG”, for which the binding signal was 8200 fluorescence intensity (a.u.).
To “TTCACCGACCACGCCCACCGCGACCCCTGCGAATCTACCGCGGAGTCACCTAGTGCAG” belongs 12400 fluorescence intensity (a.u.); to “TTTTGTGCATGTGGCTTGTTCTTTTTGGTTGGATATTTGCCGGAGTCACCTAGTGCAG”, 8350 fluorescence intensity (a.u.); to “TTGTCCATTCTTCTTTGCCTCCTATCCACAACCCTCATTTCGGAGTCACCTAGTGCAG”, 10000 fluorescence intensity (a.u.).
“TTCATTTTCAATTCCCGTCCTCATTCTTCTTATGATATTTCGGAGTCACCTAGTGCAG”: the binding signal is 8930 fluorescence intensity (a.u.).
“CCCTAGAGCTGCTGACTGACAAAACTCTCTGCATCACCAACGGAGTCACCTAGTGCAG”: the binding signal is 9540 fluorescence intensity (a.u.).
To “GCCGTGATCATCATACACAGCATCTCCATCTCTGCAGGGACGGAGTCACCTAGTGCAG” belongs 8820 fluorescence intensity (a.u.); to “AATGCTGCAATTTCTCGTTGACTAGACTTCACATGCAGCTCGGAGTCACCTAGTGCAG”, 9720 fluorescence intensity (a.u.); to “CCTAGATTGCGCCGCACCACGCCACCACGTACGCACGCGTCGGAGTCACCTAGTGCAG”, 8380 fluorescence intensity (a.u.).
To “ACTAGACGCATCACCTCGTTGCCCCGGTCCTCAAGTACCTCGGAGTCACCTAGTGCAG” belongs 9180 fluorescence intensity (a.u.); to “TTGGTGGGTGCGTAAGTATGGGATTACGAGTATAGTAGTGCGGAGTCACCTAGTGCAG”, 8180 fluorescence intensity (a.u.).
For “GTGATTTGATCTCGCTGCTGATATTGCTCCCTCATCCCAACGGAGTCACCTAGTGCAG”, the binding signal was 8760 fluorescence intensity (a.u.).
